Experimental findings from publication PMC12089306 are described below.

The chains behind the UniProt entries cited, without tags or fusion partners. Where a name states a change or a piece, a line headed by the entry shows the natural chain unless it says otherwise. A line that says so, or that is headed by a name, gives the form on record, which may keep a tag or linker.
UniProt Q15561: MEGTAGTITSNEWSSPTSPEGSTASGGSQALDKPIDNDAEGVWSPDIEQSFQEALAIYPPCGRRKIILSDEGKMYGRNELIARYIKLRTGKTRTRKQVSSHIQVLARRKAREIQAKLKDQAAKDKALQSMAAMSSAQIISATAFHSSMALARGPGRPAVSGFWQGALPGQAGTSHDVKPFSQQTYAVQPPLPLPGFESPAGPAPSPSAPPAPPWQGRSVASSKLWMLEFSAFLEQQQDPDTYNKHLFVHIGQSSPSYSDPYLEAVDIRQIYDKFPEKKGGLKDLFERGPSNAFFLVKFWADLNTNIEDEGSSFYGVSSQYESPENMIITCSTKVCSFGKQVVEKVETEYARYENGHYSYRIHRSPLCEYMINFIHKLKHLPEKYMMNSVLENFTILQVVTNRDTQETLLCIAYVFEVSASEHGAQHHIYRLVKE
UniProt Q99594: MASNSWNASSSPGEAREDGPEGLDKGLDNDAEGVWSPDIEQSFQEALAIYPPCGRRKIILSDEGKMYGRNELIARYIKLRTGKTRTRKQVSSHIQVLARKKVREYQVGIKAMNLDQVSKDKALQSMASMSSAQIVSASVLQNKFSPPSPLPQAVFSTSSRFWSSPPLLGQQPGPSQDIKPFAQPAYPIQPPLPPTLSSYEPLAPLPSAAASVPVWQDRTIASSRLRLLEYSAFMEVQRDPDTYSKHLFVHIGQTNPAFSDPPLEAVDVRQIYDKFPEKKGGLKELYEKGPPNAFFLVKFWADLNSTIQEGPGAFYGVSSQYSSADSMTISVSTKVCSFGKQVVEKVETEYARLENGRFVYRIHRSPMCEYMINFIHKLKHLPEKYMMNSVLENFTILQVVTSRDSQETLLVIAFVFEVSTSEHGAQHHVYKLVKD
UniProt P28347: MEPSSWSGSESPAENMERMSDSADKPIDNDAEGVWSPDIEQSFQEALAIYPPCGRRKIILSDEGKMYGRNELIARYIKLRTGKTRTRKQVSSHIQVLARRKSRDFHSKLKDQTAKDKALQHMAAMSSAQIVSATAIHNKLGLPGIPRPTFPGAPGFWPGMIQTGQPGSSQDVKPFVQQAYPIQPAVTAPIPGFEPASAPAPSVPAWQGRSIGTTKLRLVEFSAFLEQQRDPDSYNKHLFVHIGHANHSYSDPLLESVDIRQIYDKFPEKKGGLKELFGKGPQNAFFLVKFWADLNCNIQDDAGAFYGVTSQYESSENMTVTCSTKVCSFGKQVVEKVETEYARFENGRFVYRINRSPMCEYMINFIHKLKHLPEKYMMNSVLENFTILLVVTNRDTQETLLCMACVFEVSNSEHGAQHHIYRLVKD
UniProt Q15562: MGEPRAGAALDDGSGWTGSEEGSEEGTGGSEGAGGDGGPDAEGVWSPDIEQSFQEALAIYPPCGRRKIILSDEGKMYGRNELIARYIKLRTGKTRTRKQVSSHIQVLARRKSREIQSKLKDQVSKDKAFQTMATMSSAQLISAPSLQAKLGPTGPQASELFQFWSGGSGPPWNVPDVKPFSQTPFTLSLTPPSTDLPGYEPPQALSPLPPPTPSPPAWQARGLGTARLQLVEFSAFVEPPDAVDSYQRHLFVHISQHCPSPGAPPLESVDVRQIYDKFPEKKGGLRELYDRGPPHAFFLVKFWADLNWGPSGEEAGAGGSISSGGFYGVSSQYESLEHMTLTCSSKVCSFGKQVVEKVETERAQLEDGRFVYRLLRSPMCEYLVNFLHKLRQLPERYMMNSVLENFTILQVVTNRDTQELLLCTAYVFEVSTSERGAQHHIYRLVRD
UniProt P08047: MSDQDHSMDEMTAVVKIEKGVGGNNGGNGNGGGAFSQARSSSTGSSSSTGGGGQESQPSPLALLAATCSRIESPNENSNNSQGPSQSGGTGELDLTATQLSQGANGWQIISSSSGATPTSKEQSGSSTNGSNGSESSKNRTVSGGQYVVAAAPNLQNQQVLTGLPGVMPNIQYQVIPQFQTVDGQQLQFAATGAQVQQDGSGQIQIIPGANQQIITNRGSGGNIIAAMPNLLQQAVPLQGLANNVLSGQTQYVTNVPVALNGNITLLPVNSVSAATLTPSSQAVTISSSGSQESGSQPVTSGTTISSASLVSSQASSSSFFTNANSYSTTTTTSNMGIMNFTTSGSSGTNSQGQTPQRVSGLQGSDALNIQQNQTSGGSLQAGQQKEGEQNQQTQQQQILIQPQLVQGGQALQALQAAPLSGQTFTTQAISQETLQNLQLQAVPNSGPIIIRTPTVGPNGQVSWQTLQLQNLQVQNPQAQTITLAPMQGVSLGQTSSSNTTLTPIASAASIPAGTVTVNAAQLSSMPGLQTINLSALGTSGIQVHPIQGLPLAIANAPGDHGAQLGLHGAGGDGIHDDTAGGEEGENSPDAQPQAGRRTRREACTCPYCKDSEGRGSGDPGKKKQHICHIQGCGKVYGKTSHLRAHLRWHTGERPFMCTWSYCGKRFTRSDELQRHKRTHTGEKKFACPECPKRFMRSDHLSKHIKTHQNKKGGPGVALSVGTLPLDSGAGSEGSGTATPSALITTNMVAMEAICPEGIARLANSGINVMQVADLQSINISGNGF
SP1 with individual mutation of S670 (P08047, form named): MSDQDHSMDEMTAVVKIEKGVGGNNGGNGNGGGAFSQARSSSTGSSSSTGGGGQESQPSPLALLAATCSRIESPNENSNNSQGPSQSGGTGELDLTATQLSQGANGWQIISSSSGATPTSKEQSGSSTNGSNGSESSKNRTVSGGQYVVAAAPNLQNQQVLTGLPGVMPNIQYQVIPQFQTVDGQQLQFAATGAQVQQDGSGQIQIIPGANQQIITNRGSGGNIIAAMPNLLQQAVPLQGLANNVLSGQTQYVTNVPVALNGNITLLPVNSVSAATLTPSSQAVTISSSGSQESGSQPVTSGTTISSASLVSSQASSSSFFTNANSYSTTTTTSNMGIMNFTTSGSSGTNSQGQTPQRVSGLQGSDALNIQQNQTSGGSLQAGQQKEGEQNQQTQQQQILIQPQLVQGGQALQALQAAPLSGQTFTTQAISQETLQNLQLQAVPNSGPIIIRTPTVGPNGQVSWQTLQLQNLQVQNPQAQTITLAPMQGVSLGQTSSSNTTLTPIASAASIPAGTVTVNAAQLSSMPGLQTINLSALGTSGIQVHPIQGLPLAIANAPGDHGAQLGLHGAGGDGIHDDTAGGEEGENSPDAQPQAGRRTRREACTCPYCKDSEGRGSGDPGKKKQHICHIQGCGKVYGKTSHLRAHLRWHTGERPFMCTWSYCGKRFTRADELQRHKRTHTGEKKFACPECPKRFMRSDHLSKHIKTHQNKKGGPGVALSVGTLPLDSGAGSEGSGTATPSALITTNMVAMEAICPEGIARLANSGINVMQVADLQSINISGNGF
SP1 with individual mutation of T668 (P08047, form named): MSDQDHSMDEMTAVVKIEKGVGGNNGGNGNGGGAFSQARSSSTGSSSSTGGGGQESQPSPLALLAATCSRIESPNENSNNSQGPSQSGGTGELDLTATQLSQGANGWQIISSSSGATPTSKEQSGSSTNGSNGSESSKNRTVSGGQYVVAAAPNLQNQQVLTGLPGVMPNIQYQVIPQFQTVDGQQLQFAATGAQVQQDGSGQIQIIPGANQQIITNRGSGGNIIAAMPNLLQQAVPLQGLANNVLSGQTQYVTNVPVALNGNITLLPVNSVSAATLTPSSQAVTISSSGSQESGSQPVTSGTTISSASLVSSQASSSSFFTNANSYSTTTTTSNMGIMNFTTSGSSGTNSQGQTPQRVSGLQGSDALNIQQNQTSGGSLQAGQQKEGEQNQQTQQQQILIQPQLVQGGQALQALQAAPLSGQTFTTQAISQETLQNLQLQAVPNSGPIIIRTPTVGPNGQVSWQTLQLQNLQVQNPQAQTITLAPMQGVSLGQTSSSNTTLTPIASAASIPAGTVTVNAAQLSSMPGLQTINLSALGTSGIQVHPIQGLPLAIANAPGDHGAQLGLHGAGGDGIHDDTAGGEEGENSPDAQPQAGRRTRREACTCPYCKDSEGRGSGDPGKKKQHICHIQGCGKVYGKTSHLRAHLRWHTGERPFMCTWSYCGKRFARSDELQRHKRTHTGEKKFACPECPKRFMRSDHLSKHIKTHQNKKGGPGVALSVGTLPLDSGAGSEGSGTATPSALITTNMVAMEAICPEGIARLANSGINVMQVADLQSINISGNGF
SP1 with individual mutation of T681 (P08047, form named): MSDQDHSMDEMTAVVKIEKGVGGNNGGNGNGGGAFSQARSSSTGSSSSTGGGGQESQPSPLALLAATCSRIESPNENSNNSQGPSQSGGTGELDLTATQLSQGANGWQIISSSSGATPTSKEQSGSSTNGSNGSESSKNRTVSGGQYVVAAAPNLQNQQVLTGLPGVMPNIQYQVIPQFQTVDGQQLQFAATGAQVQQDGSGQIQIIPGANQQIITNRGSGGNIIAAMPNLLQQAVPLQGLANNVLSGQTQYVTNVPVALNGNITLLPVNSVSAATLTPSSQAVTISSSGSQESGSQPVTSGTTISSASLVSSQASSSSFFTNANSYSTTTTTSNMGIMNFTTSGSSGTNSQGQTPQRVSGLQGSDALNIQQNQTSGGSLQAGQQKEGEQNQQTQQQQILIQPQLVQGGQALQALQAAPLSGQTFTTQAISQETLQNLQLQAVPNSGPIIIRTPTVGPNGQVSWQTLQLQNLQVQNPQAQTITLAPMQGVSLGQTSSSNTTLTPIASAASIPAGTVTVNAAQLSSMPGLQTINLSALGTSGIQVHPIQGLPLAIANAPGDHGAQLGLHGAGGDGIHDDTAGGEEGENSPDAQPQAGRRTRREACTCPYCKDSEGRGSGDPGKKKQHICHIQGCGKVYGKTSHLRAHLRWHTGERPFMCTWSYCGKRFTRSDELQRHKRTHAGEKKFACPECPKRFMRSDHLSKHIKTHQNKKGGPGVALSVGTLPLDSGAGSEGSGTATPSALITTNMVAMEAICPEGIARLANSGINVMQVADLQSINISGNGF

These are yes or no findings as the source states them, for the method shown. Binding seen in cells or lysates may run through a third protein. Some results given as binding are weak or reduced against the parent protein; the word gives no strength.

For one assay, the target named is FLAG-TEAD4 (UniProt Q15561). Put plainly: co-IP; exogenous FLAG-YAP/TAZ/TEAD4 and HA-SP1 co-expressed in HEK293T cells.
In another assay the target is TEAD3 (UniProt Q99594). In words: co-IP; Supplementary Fig. S2A; the four TEAD family members with SP1; cells and constructs not shown.
The next assay addresses TEAD1 (UniProt P28347). The assay is described as above.
In another assay the target is TEAD2 (UniProt Q15562). Described as above.
The target in assay [1] is TEAD4 (as used in Supplementary Fig. S2A) (UniProt Q15561). Described as above.
Assay [2] concerns the target TEAD4 (in HCT116 cells, Fig. 2I and Fig. 3) (UniProt Q15561). Put plainly: co-IP; HCT116 cells transfected with the indicated plasmids (WT, truncated or phosphorylation-site mutant SP1; TEAD4; PKCζ); serum starvation and 10% serum, PKCζ overexpression, PKCζ siRNA, 1 μM ZIP, LATS1/2 knockdown as treatments.
Assay [3] addresses endogenous TEAD4 (human (endogenous in HCT116)) (UniProt Q15561). In words: co-IP; endogenous proteins in HCT116 lysate; primary antibodies at 4 °C overnight, protein A/G agarose beads 2 h; with or without SP1 knockdown for YAP/TAZ with TEADs.
For assay [4] the target is unchanged. In words: proximity ligation; Duolink In Situ Detection Kit on fixed, permeabilised HCT116 cells; antibodies against SP1 (rabbit) and YAP, TAZ or TEAD4 (mouse).
The target in assay [5] is FLAG-TEAD4 (in HCT116 cells) (UniProt Q15561). Put plainly: co-IP; exogenous FLAG-TEAD4 (wild type or mutants) and endogenous SP1 in HCT116 cells; in the presence or absence of DNase I.

For HA-SP1 (from UniProt P08047 1-785), the binding result in the assay with FLAG-TEAD4 is on record as “binds”.
Consider “SP1 (as used in Supplementary Fig. S2A) (from UniProt P08047 1-785)”, for which the binding result (with TEAD3; in the assay with TEAD1; with TEAD2; in assay [1]) was “binds” throughout.
For the molecule “SP1 with individual mutation of S670 (from UniProt P08047 1-785)”, the binding result in [2] is “binds”.
On the same count and under the same terms, next, “SP1 with individual mutation of T668 (from UniProt P08047 1-785)”: “binds”; “SP1 with individual mutation of T681 (from UniProt P08047 1-785)”: “binds”.
Same read-out and setting: to “WT SP1 (exogenous, in HCT116 cells) (from UniProt P08047 1-785)” belongs “binds”.
Consider “endogenous SP1 (from UniProt P08047 1-785)”, for which the values for the binding entry in assay [3], in [4] and in assay [5] were “binds weakly”, “binds” and “binds”, respectively.

B1: PKCζ (protein kinase C ζ) (enzyme, UniProt Q05513 1-592)
chain: MPSRTGPKMEGSGGRVRLKAHYGGDIFITSVDAATTFEELCEEVRDMCRLHQQHPLTLKWVDSEGDPCTVSSQMELEEAFRLARQCRDEGLIIHVFPSTPEQPGLPCPGEDKSIYRRGARRWRKLYRANGHLFQAKRFNRRAYCGQCSERIWGLARQGYRCINCKLLVHKRCHGLVPLTCRKHMDSVMPSQEPPVDDKNEDADLPSEETDGIAYISSSRKHDSIKDDSEDLKPVIDGMDGIKISQGLGLQDFDLIRVIGRGSYAKVLLVRLKKNDQIYAMKVVKKELVHDDEDIDWVQTEKHVFEQASSNPFLVGLHSCFQTTSRLFLVIEYVNGGDLMFHMQRQRKLPEEHARFYAAEICIALNFLHERGIIYRDLKLDNVLLDADGHIKLTDYGMCKEGLGPGDTTSTFCGTPNYIAPEILRGEEYGFSVDWWALGVLMFEMMAGRSPFDIITDNPDMNTEDYLFQVILEKPIRIPRFLSVKASHVLKGFLNKDPKERLGCRPQTGFSDIKSHAFFRSIDWDLLEKKQALPPFQPQITDDYGLDNFDTQFTSEPVQLTPDDEDAIKRIDQSEFEGFEYINPLLLSTEESV
For B1, the binding result in assay [2] was “binds”.
